Experimental data reported in the supplement of paper PMC10849652.
Some of the results follow. Residues, ends and D or L forms follow the SMILES beside them. *: point of attachment. Cbz = O=C(OCc1ccccc1)*

Amino acid sequences for entries named in this document (tags omitted). A change or cut given only in a name is not applied to a line headed by its entry.
UniProt Q9NWH9: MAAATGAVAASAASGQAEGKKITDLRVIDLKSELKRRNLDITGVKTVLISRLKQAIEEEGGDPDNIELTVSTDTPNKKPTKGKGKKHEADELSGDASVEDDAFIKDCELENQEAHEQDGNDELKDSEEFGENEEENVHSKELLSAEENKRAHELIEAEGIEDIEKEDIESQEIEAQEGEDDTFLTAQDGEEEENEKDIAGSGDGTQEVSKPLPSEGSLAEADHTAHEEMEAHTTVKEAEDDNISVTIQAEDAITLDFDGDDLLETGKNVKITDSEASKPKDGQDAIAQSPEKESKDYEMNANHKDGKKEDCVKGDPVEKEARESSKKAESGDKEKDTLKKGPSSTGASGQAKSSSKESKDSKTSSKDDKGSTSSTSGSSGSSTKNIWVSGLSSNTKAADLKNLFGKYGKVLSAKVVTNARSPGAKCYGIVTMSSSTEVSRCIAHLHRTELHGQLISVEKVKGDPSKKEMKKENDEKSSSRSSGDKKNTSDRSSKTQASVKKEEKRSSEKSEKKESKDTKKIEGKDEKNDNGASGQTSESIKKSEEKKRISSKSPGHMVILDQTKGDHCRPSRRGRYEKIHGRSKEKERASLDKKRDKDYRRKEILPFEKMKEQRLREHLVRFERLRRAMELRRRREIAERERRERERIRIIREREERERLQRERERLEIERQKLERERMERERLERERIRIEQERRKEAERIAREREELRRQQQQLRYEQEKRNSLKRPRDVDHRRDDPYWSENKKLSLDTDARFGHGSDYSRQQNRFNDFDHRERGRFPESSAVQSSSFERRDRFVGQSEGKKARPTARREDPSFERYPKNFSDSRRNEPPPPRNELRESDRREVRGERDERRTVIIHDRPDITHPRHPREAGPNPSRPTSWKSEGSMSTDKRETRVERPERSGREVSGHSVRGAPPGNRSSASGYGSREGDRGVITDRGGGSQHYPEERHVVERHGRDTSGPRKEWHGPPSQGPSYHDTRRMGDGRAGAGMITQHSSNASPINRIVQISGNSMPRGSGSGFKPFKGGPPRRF

How the values were obtained:
Assay in all cases: log2 fold change, soluble protein after heating vs DMSO (PISA); higher = thermal stabilisation; K562 cells, 10 uM, 30 min; active = over 0.2 and 3.5 SD of the protein, either way, in both replicates (recomputed)
erlotinib = compound: C#Cc1cccc(Nc2ncnc3cc(OCCOC)c(OCCOC)cc23)c1 [erlotinib]
Outline: (§1)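 K562 cells at 2×10^6 cells/mL were exposed to 10 μM compound for 30 min, then aliquots were heated for 3 min across 48°C-58°C, pooled, and extracted in PBS containing 0.5% NP-40 at 4°C. The supernatant after 21,000xg for 90 min was taken as soluble protein and measured by TMTpro 16plex LC-MS/MS with channel sums equalised. Thermal stability is reported relative to control samples, with values from duplicates. Fold changes are given on a log2 scale.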

[1] = compound: C/C(=N\NC(=O)C1=CC(=CC=C1)S(=O)(=O)N2CCOCC2)/C3=C(C=CC(=C3)Cl)O
Outline: as §1

[2] = compound: C1=CC(=C(C=C1Cl)C2=NC3=NC=CN=C3C(=N2)NC4=CC=NC=C4)F
Outline: as §1

[3] = compound: C1=CC(=CC=C1C2=NC3=C(N2)C=C(C=C3)C(=O)N)OC4=CC=C(C=C4)Cl
Outline: as §1

[4] = compound: C1=CC2=C(C=CC(=C2)/C=C\3/C(=O)NC(=NCC4=CC=CS4)S3)N=C1
Outline: as §1

[5] = compound: C1=CC2=NC=CN=C2C=C1/C=C/3\C(=O)NC(=O)S3
Outline: as §1

[6] = compound: C1=CC=C(C=C1)C2=NC(=C(N2)C3=CC=NC=C3)C4=CC(=C(C=C4)Cl)O
Outline: as §1

[7] = compound: C1=CC=C(C=C1)[C@H](COC2=CC3=C(C=C2)NC(=O)N3)NC(=O)C4=CC=CN(C4=O)CC5=CC(=C(C=C5)F)F
Outline: as §1

[8] = compound: C1=CC=C2C(=C1)C3=NNC4=CC=CC(=C43)C2=O
Outline: as §1

[9] = compound: C1CCN(C1)C(=O)NC2=CC=CC(=C2)NC3=NC=C(C(=N3)NCCC4=CN=CN4)Br
Outline: as §1

[10] = compound: C1CN(CCC1(CC2=CC=C(C=C2)Cl)N)C3=NC=NC4=C3C=CN4
Outline: as §1

IRAK-1-4 Inhibitor I = compound: C1COCCN1CCN2C3=CC=CC=C3N=C2NC(=O)C4=CC(=CC=C4)[N+](=O)[O-] [IRAK-1-4 Inhibitor I]
Outline: as §1

ibrutinib = compound: C=CC(=O)N1CCC[C@@H](n2nc(-c3ccc(Oc4ccccc4)cc3)c3c(N)ncnc32)C1 [ibrutinib]
Outline: as §1

[11] = compound: CC(=O)c1cnc2ccc(-c3cc(Cl)c(O)c(Cl)c3)nc2c1N[C@H]1CC[C@H](CN(C)C)CC1
Outline: as §1

ralimetinib = compound: CC(C)(C)Cn1c(N)nc2ccc(-c3[nH]c(C(C)(C)C)nc3-c3ccc(F)cc3)nc21 [ralimetinib]
Outline: as §1

[12] = compound: CC(C)(O)CC(=O)NCCn1ccc2ncnc(Nc3ccc(Oc4cccc(C(F)(F)F)c4)c(Cl)c3)c21
Outline: as §1

[13] = compound: CC(C)C1=C2N=C(C=C(N2N=C1)NCC3=CC=CC=C3)NCCCCCCN
Outline: as §1

[14] = compound: CC(C)C[C@@H](C=O)NC(=O)[C@H](CC(C)C)NC(=O)[C@H](CC(C)C)NC(=O)OCc1ccccc1
Outline: as §1

pinometostat = compound: CC(C)N(C[C@H]1O[C@@H](n2cnc3c(N)ncnc32)[C@H](O)[C@@H]1O)[C@H]1C[C@@H](CCc2nc3cc(C(C)(C)C)ccc3[nH]2)C1 [pinometostat]
Outline: as §1

[15] = compound: CC1=C(C(CC(=O)N1)C2=CC=C(C=C2)C(F)(F)F)C(=O)NC3=C(C=C4C(=C3)C=NN4)F
Outline: as §1

[16] = compound: CC1=C(C2=C(C=C1)C(=O)C3=CC=CC=C3N2CCCN)C
Outline: as §1

[17] = compound: CC1=C(C=C(C=C1)NC(=O)C2=CC(=CC=C2)C(C)(C)C#N)NC3=CC4=C(C=C3)N=CN(C4=O)C
Outline: as §1

[18] = compound: CC1=C(C=C(C=C1)NC(=O)C2=CC(=CC=C2)N(C)C)NC(=O)C3=CC=C(C=C3)O
Outline: as §1

[19] = compound: CC1=C(SC2=C1C(=N[C@H](C3=NN=C(N32)C)CC(=O)N)C4=CC=C(C=C4)Cl)C
Outline: as §1

[20] = compound: CC1=C2C(=CC=C1)N=C(N(C2=O)C3=CC=CC=C3C)CN4C=NC5=C(N=CN=C54)N
Outline: as §1

[21] = compound: CC1=CC=C(C=C1)SC2=C3C=C(SC3=CN=C2)C(=O)N
Outline: as §1

[22] = compound: CC1=NC(=CC=C1)C2=C(N=C(N2)C(C)(C)C)C3=CC4=NC=CN=C4C=C3
Outline: as §1

Nexturastat A = compound: CCCCN(Cc1ccc(C(=O)NO)cc1)C(=O)Nc1ccccc1 [Nexturastat A]
Outline: as §1

vemurafenib = compound: CCCS(=O)(=O)Nc1ccc(F)c(C(=O)c2c[nH]c3ncc(-c4ccc(Cl)cc4)cc23)c1F [vemurafenib]
Outline: as §1

[23] = compound: CCCS(=O)(=O)Nc1ccc(F)c(C(=O)c2c[nH]c3ncc(Cl)cc23)c1F
Outline: as §1

[24] = compound: CCCc1cc(C)[nH]c(=O)c1CNC(=O)c1cc(-c2ccnc(N3CCN(C)CC3)c2)cc2c1cnn2C(C)C
Outline: as §1

givinostat = compound: CCN(CC)Cc1ccc2cc(COC(=O)Nc3ccc(C(=O)NO)cc3)ccc2c1 [givinostat]
Outline: as §1

barasertib = compound: CCN(CCCOc1ccc2c(Nc3cc(CC(=O)Nc4cccc(F)c4)[nH]n3)ncnc2c1)CCOP(=O)(O)O [barasertib]
Outline: as §1

[25] = compound: CC[C@@H]1C(=O)N(C)c2cnc(Nc3ccc(C(=O)NC4CCN(C)CC4)cc3OC)nc2N1C1CCCC1
Outline: as §1

volasertib = compound: CC[C@@H]1C(=O)N(C)c2cnc(Nc3ccc(C(=O)N[C@H]4CC[C@H](N5CCN(CC6CC6)CC5)CC4)cc3OC)nc2N1C(C)C [volasertib]
Outline: as §1

[26] = compound: CC[C@H](C)N1C=C(C2=C(C=C(C=C21)C3=CN=C(C=C3)N4CCNCC4)C(=O)NCC5=C(C=C(NC5=O)C)C)C
Outline: as §1

epoxomicin = compound: CC[C@H](C)[C@@H](C(=O)N[C@@H]([C@@H](C)O)C(=O)N[C@@H](CC(C)C)C(=O)[C@]1(CO1)C)NC(=O)[C@H]([C@@H](C)CC)N(C)C(=O)C [epoxomicin]
Outline: as §1

[27] = compound: CCn1c(C(=O)N(C2CC2)C2CC2)cc2c3c(ncn3C)c(Nc3cc(C)n(C)n3)nc21
Outline: as §1

[28] = compound: CCn1cc(-c2ccnc3[nH]c(-c4cccc(CN(C)C)c4)cc23)c(-c2ccc(NC(=O)N(C)C)cc2)n1
Outline: as §1

[29] = compound: CN(C)CC(=O)Nc1ccc2[nH]c(=O)c3ccccc3c2c1
Outline: as §1

rosiglitazone = compound: CN(CCOC1=CC=C(C=C1)C[C@H]2C(=O)NC(=O)S2)C3=CC=CC=N3 (racemic) [rosiglitazone]
Outline: as §1

[30] = compound: CN1C2=C(C3=C1C(=O)N(N=C3)CC4=CC(=CC=C4)N)SC(=C2)S(=O)C
Outline: as §1

[31] = compound: CN1CCC(CNc2ccc3ncc(-c4cccc(OC(F)(F)F)c4)n3n2)CC1
Outline: as §1

saracatinib = compound: CN1CCN(CCOc2cc(OC3CCOCC3)c3c(Nc4c(Cl)ccc5c4OCO5)ncnc3c2)CC1 [saracatinib]
Outline: as §1

sotrastaurin = compound: CN1CCN(c2nc(C3=C(c4c[nH]c5ccccc45)C(=O)NC3=O)c3ccccc3n2)CC1 [sotrastaurin]
Outline: as §1

alvocidib = compound: CN1CC[C@H](c2c(O)cc(O)c3c(=O)cc(-c4ccccc4Cl)oc23)[C@H](O)C1 [alvocidib]
Outline: as §1

Tubastatin A = compound: CN1CCc2c(c3ccccc3n2Cc2ccc(C(=O)NO)cc2)C1 [Tubastatin A]
Outline: as §1

[32] = compound: CNC(=O)C1=CC=CC=C1NC2=NC(=NC=C2Cl)NC3=C(C=C(C=C3)N4CCOCC4)OC
Outline: as §1

Measured: log2 fold change

SLTM (UniProt Q9NWH9)
inactive: erlotinib 0.005 | [1] -0.064 | [2] -0.425 | [3] -0.041 | [4] -0.077 | [5] -0.037 | [6] -0.247 | [7] 0.118 | [8] -0.013 | [9] -0.075 | [10] -0.002 | IRAK-1-4 Inhibitor I -0.072 | ibrutinib 0.109 | [11] 0.092 | ralimetinib 0.069 | [12] 0.139 | [13] 0.145 | [14] 0.115 | pinometostat 0.121 | [15] 0.009 | [16] -0.233 | [17] 0.007 | [18] -0.028 | [19] -0.315 | [20] -0.082 | [21] -0.07 | [22] -0.103 | Nexturastat A 0.269 | vemurafenib -0.076 | [23] -0.076 | [24] 0.043 | givinostat -0.029 | barasertib -0.152 | [25] 0.176 | volasertib 0.068 | [26] 0.008 | epoxomicin -0.25 | [27] 0.036 | [28] 0.177 | [29] -0.083 | rosiglitazone -0.131 | [30] 0.242 | [31] 0.252 | saracatinib 0.004 | sotrastaurin 0.064 | alvocidib 0.274 | Tubastatin A 0.125 | [32] -0.019
